Consider three substances from paper PMC3262835.

Amino acid sequences for entries named in this document (tags omitted).
UniProt P35222: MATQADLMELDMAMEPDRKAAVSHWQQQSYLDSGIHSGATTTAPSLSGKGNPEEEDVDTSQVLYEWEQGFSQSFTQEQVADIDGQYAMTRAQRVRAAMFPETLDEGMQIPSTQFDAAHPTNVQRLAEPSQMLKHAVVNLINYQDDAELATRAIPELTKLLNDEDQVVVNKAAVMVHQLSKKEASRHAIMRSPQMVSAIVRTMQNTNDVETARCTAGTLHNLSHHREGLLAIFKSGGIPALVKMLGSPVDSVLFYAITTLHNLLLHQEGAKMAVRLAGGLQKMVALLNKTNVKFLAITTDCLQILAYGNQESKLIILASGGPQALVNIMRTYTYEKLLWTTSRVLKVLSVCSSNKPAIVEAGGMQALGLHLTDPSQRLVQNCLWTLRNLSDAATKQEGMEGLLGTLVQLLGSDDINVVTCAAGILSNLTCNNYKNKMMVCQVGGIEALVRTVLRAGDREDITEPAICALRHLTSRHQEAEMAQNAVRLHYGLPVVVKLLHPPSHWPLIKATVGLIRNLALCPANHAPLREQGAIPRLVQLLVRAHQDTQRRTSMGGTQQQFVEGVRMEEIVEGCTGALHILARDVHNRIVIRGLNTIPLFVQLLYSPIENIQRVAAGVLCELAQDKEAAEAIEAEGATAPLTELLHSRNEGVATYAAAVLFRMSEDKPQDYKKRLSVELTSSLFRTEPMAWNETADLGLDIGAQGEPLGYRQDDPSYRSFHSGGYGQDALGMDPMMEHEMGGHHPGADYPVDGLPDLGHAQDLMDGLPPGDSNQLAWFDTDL
UniProt P17844: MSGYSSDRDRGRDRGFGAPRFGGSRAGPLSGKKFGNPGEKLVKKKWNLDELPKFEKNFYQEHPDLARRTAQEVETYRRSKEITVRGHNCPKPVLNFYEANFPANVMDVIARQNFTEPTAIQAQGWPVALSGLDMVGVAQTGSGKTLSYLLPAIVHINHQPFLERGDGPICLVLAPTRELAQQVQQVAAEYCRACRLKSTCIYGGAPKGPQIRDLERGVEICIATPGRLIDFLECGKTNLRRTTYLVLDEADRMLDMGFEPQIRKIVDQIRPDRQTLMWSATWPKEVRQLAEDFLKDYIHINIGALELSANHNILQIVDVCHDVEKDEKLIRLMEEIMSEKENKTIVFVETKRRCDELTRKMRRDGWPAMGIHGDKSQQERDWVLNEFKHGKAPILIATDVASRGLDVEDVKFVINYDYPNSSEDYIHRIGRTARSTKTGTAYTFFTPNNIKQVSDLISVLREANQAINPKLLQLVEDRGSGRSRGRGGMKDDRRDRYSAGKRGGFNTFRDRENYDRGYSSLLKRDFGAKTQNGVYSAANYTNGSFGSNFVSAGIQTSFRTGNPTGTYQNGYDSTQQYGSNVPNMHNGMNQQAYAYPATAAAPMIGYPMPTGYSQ
UniProt Q16665: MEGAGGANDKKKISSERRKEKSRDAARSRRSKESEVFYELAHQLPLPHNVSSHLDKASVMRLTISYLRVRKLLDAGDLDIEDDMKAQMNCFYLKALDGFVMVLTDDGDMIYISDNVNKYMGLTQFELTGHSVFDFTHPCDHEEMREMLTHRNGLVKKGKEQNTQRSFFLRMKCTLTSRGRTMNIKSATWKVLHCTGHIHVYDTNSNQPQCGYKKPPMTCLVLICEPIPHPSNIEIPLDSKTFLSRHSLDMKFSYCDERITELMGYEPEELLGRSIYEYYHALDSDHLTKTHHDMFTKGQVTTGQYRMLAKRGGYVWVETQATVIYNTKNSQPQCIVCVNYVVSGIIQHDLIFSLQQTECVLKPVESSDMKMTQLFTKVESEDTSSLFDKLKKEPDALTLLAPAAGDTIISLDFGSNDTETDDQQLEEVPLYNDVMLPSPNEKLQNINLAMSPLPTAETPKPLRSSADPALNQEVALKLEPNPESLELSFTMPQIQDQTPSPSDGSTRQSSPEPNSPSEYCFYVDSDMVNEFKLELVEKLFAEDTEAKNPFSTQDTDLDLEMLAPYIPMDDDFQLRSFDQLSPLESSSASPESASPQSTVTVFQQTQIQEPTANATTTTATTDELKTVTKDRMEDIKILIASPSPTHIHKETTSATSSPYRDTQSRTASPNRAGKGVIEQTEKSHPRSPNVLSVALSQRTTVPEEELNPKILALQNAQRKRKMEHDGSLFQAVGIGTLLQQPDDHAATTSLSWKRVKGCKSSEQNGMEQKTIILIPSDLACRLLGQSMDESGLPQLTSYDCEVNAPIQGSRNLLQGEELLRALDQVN

Results are given in words; binding and its absence hold for the method and conditions named. Binding seen in cells or lysates may run through a third protein. Some entries that bind do so weakly or less than the wild type.

Assay in all cases: co-IP; total nuclear lysates (1 mg) of ARCaPM cells, PDGF-BB (20 ng/ml) time course; 5 µg anti-HIF-1α, anti-β-catenin or anti-p68 antibody or normal IgG, Protein A/G Sepharose 4 Fast Flow beads; Western blot
Assay [1] deals with β-catenin (human (endogenous in ARCaPM)) (UniProt P35222).
In assay [2] the target is p68 (human (endogenous in ARCaPM)) (UniProt P17844).
Assay [3] addresses hypoxia-inducible factor (HIF)-1α (human (endogenous in ARCaPM)) (UniProt Q16665).

Consider “hypoxia-inducible factor (HIF)-1α (from UniProt Q16665 1-826)”, for which the binding entry in assay [1] is “binds”.

Turning to p68 (from UniProt P17844 1-614), the binding result in assay [1] was “binds”.

In the case of β-catenin (from UniProt P35222 1-781), the binding result in assay [2] and in assay [3] was “binds” in each case.
